{"source": "PubChem BioAssay AID1259405 (NCATS, 2018)", "assay": "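Knock-downs that lift recombinant protein yield in hamster ovary cells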 (primary screen)", "cell system": "Chinese hamster CHO-K1 ovary cells with stable secreted eGFP expression", "reagent": "single siRNA against mouse genes, 0.8 pmol siRNA per well (2 µl of 400 nM stock)", "duration": "3 days", "read-out": "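Percent of the per-plate non-targeting control median for intracellular GFP per well by laser scanning cytometry and for cell viability by ATP luminescence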", "scale": "GFP, % of control: higher = more GFP per well, higher productivity; viability (ATP), % of control: higher = more viable cells (more ATP)", "hit rule": "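Called active when intracellular GFP, relative to negative control, is at or above 120%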", "note": "The whole screen tested about 50,000 reagents; shown is a part drawn at random. About 4,000 of them (8%) were called active. 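Mouse siRNA library applied to hamster cells; one well for each siRNA.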 Unmarked entries are inactive. Reagents against one gene are numbered here. No sequences are given here."}
{"Target gene":"Ralyl","siRNA no.":1,"GFP, % of control":96.6,"viability (ATP), % of control":104}
{"Target gene":"Ralyl","siRNA no.":2,"GFP, % of control":86.5,"viability (ATP), % of control":70.3}
{"Target gene":"Ralyl","siRNA no.":3,"GFP, % of control":60.4,"viability (ATP), % of control":71.3}
{"Target gene":"Eppk1","siRNA no.":1,"GFP, % of control":68.1,"viability (ATP), % of control":83.3}
{"Target gene":"Eppk1","siRNA no.":2,"GFP, % of control":104,"viability (ATP), % of control":94.6}
{"Target gene":"Eppk1","siRNA no.":3,"GFP, % of control":75.2,"viability (ATP), % of control":92.1}
{"Target gene":"Nup214","siRNA no.":1,"GFP, % of control":113,"viability (ATP), % of control":101}
{"Target gene":"Nup214","siRNA no.":2,"GFP, % of control":77.8,"viability (ATP), % of control":58.8}
{"Target gene":"Nup214","siRNA no.":3,"GFP, % of control":47.3,"viability (ATP), % of control":35.9}
{"Target gene":"Reg3b","siRNA no.":1,"GFP, % of control":76.1,"viability (ATP), % of control":92.5}
{"Target gene":"Reg3b","siRNA no.":2,"GFP, % of control":69.3,"viability (ATP), % of control":41.1}
{"Target gene":"Reg3b","siRNA no.":3,"GFP, % of control":71.9,"viability (ATP), % of control":49.6}
{"Target gene":"Gpx1","siRNA no.":1,"GFP, % of control":119,"viability (ATP), % of control":115}
{"Target gene":"Gpx1","siRNA no.":2,"GFP, % of control":35.1,"viability (ATP), % of control":37.9}
{"Target gene":"Gpx1","siRNA no.":3,"GFP, % of control":49.1,"viability (ATP), % of control":42.1}
{"Target gene":"Polr2a","siRNA no.":1,"GFP, % of control":108,"viability (ATP), % of control":94.4}
{"Target gene":"Polr2a","siRNA no.":2,"GFP, % of control":77.3,"viability (ATP), % of control":71.6}
{"Target gene":"Or2k2","siRNA no.":1,"GFP, % of control":70.7,"viability (ATP), % of control":18.8}
{"Target gene":"Or2k2","siRNA no.":2,"GFP, % of control":92.7,"viability (ATP), % of control":64.1}
{"Target gene":"Or2k2","siRNA no.":3,"GFP, % of control":114,"viability (ATP), % of control":71.8}
{"Target gene":"Col25a1","siRNA no.":1,"GFP, % of control":84.2,"viability (ATP), % of control":63.2}
{"Target gene":"Col25a1","siRNA no.":2,"GFP, % of control":74.4,"viability (ATP), % of control":78.9}
{"Target gene":"Col25a1","siRNA no.":3,"GFP, % of control":"128 (active)","viability (ATP), % of control":46.5}
{"Target gene":"Shh","siRNA no.":1,"GFP, % of control":86.1,"viability (ATP), % of control":70.9}
{"Target gene":"Shh","siRNA no.":2,"GFP, % of control":69,"viability (ATP), % of control":65}
{"Target gene":"Shh","siRNA no.":3,"GFP, % of control":108,"viability (ATP), % of control":128}
{"Target gene":"Rfng","siRNA no.":1,"GFP, % of control":14.1,"viability (ATP), % of control":20.8}
{"Target gene":"Rfng","siRNA no.":2,"GFP, % of control":79.7,"viability (ATP), % of control":78.2}
{"Target gene":"Rfng","siRNA no.":3,"GFP, % of control":69.6,"viability (ATP), % of control":67}
{"Target gene":"Siglecl2","siRNA no.":1,"GFP, % of control":89.7,"viability (ATP), % of control":60.4}
{"Target gene":"Siglecl2","siRNA no.":2,"GFP, % of control":46.4,"viability (ATP), % of control":61.4}
{"Target gene":"Siglecl2","siRNA no.":3,"GFP, % of control":95.9,"viability (ATP), % of control":87.6}
{"Target gene":"Dctn3","siRNA no.":1,"GFP, % of control":68.2,"viability (ATP), % of control":85.5}
{"Target gene":"Dctn3","siRNA no.":2,"GFP, % of control":50.2,"viability (ATP), % of control":33.6}
{"Target gene":"Dctn3","siRNA no.":3,"GFP, % of control":103,"viability (ATP), % of control":83.8}
{"Target gene":"Ipo13","siRNA no.":1,"GFP, % of control":89.5,"viability (ATP), % of control":76.2}
{"Target gene":"Ipo13","siRNA no.":2,"GFP, % of control":116,"viability (ATP), % of control":130}
{"Target gene":"Ipo13","siRNA no.":3,"GFP, % of control":79.7,"viability (ATP), % of control":86.4}
{"Target gene":"Fxr1","siRNA no.":1,"GFP, % of control":87.9,"viability (ATP), % of control":107}
{"Target gene":"Fxr1","siRNA no.":2,"GFP, % of control":66.9,"viability (ATP), % of control":59.5}
{"Target gene":"Fxr1","siRNA no.":3,"GFP, % of control":57.5,"viability (ATP), % of control":40.6}

Look-ups from the list:
For “viability (ATP), % of control”, Siglecl2 #3 reads 87.6
Under “GFP, % of control”, Siglecl2 #2 has 46.4
Value of Reg3b #1 under “viability (ATP), % of control”: 92.5
Result of Polr2a #2 under “viability (ATP), % of control”: 71.6
